From article PMC4123098
Results are given in words; binding and its absence hold for the method and conditions named. Binding seen in cells or lysates may run through a third protein. Some entries that bind do so weakly or less than the wild type.

Molecular target: DJ-1-CFPC (WT) (UniProt Q99497)
Assay: split reporter; BiFC in living HEK293 cells co-transfected with two constructs; green fluorescence normalised to co-transfected mCherry or RFP; 30 °C overnight before imaging

DJ-1-GFPN (WT) (from UniProt Q99497 1-189) (other; other documents disagree on this pair)
binding: binds
